Experimental data as given in PubChem BioAssay AID2685 (National Center for Advancing Translational Sciences (NCATS), 2010).
The list shows a part of the results. Further columns of the screen follow, without active or inactive calls. Compounds called inactive in the main read-out are mostly missing here. The note in brackets gives the kind of curve behind each potency; many fits are weak.

Test: qHTS Assay for Lipid Storage Modulators in Drosophila S3 Cells;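 for cell number change: cells counted by Cell Tracker Red CMTPX staining in the red channel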
Conditions: BODIPY lipid droplet fluorescence, 18-24 h; for cell number change: measured here: cell count max response, cells fed with added oleic acid
Procedure, shortened: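 Drosophila S3 cells loaded with oleic acid (400 uM, as added) and compounds at several concentrations; lipid droplets imaged by 488-nm laser-scanning cytometry, 500–530 nm intensity and object ratio to cell channel. Percent activity normalized to 20 uM Triacsin C.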

[1] = measured here: lipid fluorescence (Fed channel) AC50, cells fed with added oleic acid
[2] = measured here: cell number channel AC50, cells fed with added oleic acid

SMILES	cell number change	AC50 [1]	AC50 [2]
Cc1ccc(C)c(C(=O)CSc2nnnn2-c2cccnc2)c1	23.8%	0.103 µM [rising, full curve]	
Cc1ccc(N=c2c([N+](=O)[O-])nn(-c3ccc(Cl)cc3)n2O)cc1C	-78.6%	1.16 µM [falling, partial curve]	1.64 µM [falling, partial curve]
O=C(NCCc1ccc(Cl)cc1)c1cccc(N2CCCC2=O)c1	7.96%	29.1 µM [falling, single point]	
CCOc1ncccc1C(=O)OCc1cn2cc(Cl)ccc2n1		0.13 µM [rising, full curve, poor fit]	6.51 µM [rising, single point]
O=C(NCc1ccco1)c1cccs1	-12.4%		
CCOC(=O)Cn1c(C)[n+](C)c2cc(Cl)c(Cl)cc21	-81.6%	29.1 µM [rising, single point]	29.1 µM [falling, single point]
Brc1cccc(-c2nnc3n2CCCCC3)c1	9.77%	29.1 µM [rising, single point]	
CN(C)CCCN(C(=O)c1ccc2c(c1)CCCC2)c1nc2c(F)cccc2s1	-26.1%	16.4 µM [falling, single point]	
CC(C)c1nc2ccccc2c2nnc(SCC(=O)NCc3ccco3)n12	2.51%	2.31 µM [rising, partial curve]	
Cc1ccc(C(=O)NCCCNC(=O)COc2ccc(Cl)cc2)cn1	15.2%		
COc1ccc(C2CC(=O)C=C(NCc3ccccc3)C2)cc1 (stereo not given)		0.206 µM [rising, full curve, poor fit]	
Cc1cnc(C(=O)OCC(=O)N=c2sccn2Cc2ccccc2Cl)cn1	30.3%	0.112 µM [falling, full curve, poor fit]	
O=C(NCc1ccccc1)C1(c2cccc(F)c2)CCCC1		1.84 µM [rising, single point]	
C=CCNC(=O)c1cc2c(=O)n3ccccc3nc2s1		0.58 µM [falling, single point]	
COc1cccc(C(=O)C2CCCN(C(=O)CCc3scnc3C)C2)c1 (stereo not given)	-31.6%	11.6 µM [falling, partial curve]	20.6 µM [falling, single point]
COc1ccc(CN2CCN(Cc3nc4ccccc4s3)CC2CCO)c(C)c1C (stereo not given)	19.6%	0.82 µM [rising, single point]	
CC(OC(=O)c1cccc(S(=O)(=O)N2CCCC2)c1)C(=O)c1ccccc1 (stereo not given)	-16.4%	29.1 µM [falling, single point]	
C=CCn1cn[nH]c1=S	-26.8%	22.4 µM [falling, single point]	
Cc1oc(-c2ccccc2F)nc1CS(=O)(=O)CC(=O)N1CCCCCC1	44.1%	29.1 µM [rising, partial curve, poor fit]	20.6 µM [rising, single point]
O=C(N/N=C/c1ccccn1)c1cccc(NC(=O)c2ccccc2Cl)c1	5.79%		
COc1ccc(C2=NS(=O)(=O)N(C)C(C(=O)Nc3cc(OC)c(OC)c(OC)c3)=C2)cc1	-19.5%		

Nothing new here: 4 of the compounds above.
SMILES	cell number change	AC50 [1]	AC50 [2]
Cc1ccc(C(=O)NCCCNC(=O)COc2ccc(Cl)cc2)cn1	15.2%		
COc1ccc(C2CC(=O)C=C(NCc3ccccc3)C2)cc1 (stereo not given)		0.206 µM [rising, full curve, poor fit]	
Cc1cnc(C(=O)OCC(=O)N=c2sccn2Cc2ccccc2Cl)cn1	30.3%	0.112 µM [falling, full curve, poor fit]	
O=C(NCc1ccccc1)C1(c2cccc(F)c2)CCCC1		1.84 µM [rising, single point]	

Later entries

SMILES	cell number change	AC50 [1]	AC50 [2]
COc1ccc(CNC(=O)C(C#N)c2nc3ccccc3nc2N2CCCC2)cc1 (stereo not given)	-28.4%	29.1 µM [falling, single point]	
Cc1sc2ncnc(N3CCC(C(=O)Oc4cccc(Cl)c4Cl)CC3)c2c1C	-43.1%	7.31 µM [falling, single point]	20.6 µM [falling, single point]
NC(=O)CC(NC(=O)c1ccccc1)c1ccc(N2CCc3ccccc3C2)c([N+](=O)[O-])c1 (stereo not given)	-30.7%		23.1 µM [falling, single point]
CSC(=NC#N)N1CCN(C(c2ccccc2)c2ccccc2)CC1	2.7%	29.1 µM [rising, single point]	
Cc1ccc(C)c(C(=O)CCC(=O)N2CCN(c3cccc(C(F)(F)F)c3)CC2)c1	10.4%	29.1 µM [falling, single point]	
O=C(c1cc(COc2ccc(F)cc2F)on1)N1CCN(C(=O)c2ccco2)CC1	-3.68%	0.58 µM [falling, single point]	
CC(Sc1ccc(S(=O)(=O)N2CCCC2)cn1)C(N)=O (stereo not given)	3.26%		
O=C(CSc1ncn[nH]1)NCc1ccc(Cl)cc1	9.91%	2.91 µM [falling, single point]	
Cc1[nH]c2ccccc2c1SCC(=O)Nc1nccs1	2.04%	0.116 µM [rising, full curve, poor fit]	
Cc1nnc(SCC(=O)N2CCc3ccccc32)n1-c1ccccc1	8.94%	29.1 µM [rising, single point]	
COC(=O)CSc1cccc2c1C(=O)CC2c1ccccc1 (stereo not given)	27.9%	13 µM [rising, partial curve]	
CCCc1nc2sc3c(=O)[nH]cnc3c2c2c1CCCC2		6.51 µM [rising, partial curve, poor fit]	
CC(Oc1cccc([N+](=O)[O-])c1)C(=O)NCCC1=CCCCC1 (stereo not given)	33.6%	0.82 µM [rising, single point]	0.184 µM [rising, full curve, poor fit]
CCCCN(C)C(=O)C(Cc1ccccc1)NS(=O)(=O)c1ccc2c(c1)c(=O)n(C)c(=O)n2C (stereo not given)	-32.3%	0.82 µM [rising, full curve, poor fit]	29.1 µM [falling, single point]
CC1CN(C(=O)c2ccccc2OCc2ccc(Cl)cc2Cl)CC(C)O1 (stereo not given)		0.82 µM [falling, full curve]	
O=C(O)C(c1ccccc1)N1C(=O)/C(=C\c2ccc(-c3ccc(Br)cc3)o2)SC1=S (stereo not given)	-5.56%		
COc1cccc(C(=O)CN2CCC(NC(=O)NC3CCCCC3)CC2)c1	8.98%		
COc1ccc(-c2cccc(NS(=O)(=O)c3cccc([N+](=O)[O-])c3)c2)nn1	-33.7%	5.17 µM [falling, partial curve]	10.3 µM [falling, partial curve]
CC(C)(C)C(=O)Nc1ccc(/C=C/C(=O)c2ccco2)cc1	-31.8%	4.61 µM [falling, partial curve]	23.1 µM [falling, single point]
Cc1ccc(-c2nn(-c3ccccc3)cc2/C=N/O)cc1	-49.2%	18.4 µM [falling, partial curve, poor fit]	18.4 µM [falling, partial curve]
O=C(CSc1n[nH]c(=O)[nH]c1=O)c1ccc(Cl)cc1Cl	-37.6%		29.1 µM [falling, single point]

SMILES	cell number change	AC50 [1]	AC50 [2]
Cc1ccc(CSCC(=O)N2CCN(c3ccc(F)cc3)CC2)cc1	-19.9%	0.116 µM [falling, full curve, poor fit]	
CC(C)Cn1c(SCC(=O)c2c(N)n(C)c(=O)n(C)c2=O)nc2ccccc21	0.188%	32.6 µM [falling, single point]	
COc1ccccc1C(=O)NNC(=S)NC(=O)c1cc(OC)c(OC)c(OC)c1	-12.3%	0.206 µM [rising, full curve, poor fit]	
CCn1c(SCC(=O)Nc2ccc3c(c2)oc2ccccc23)nnc1-c1ccc(N)cc1	-88.3%		16.4 µM [falling, partial curve]
CCc1ccccc1NC(=O)C1CCN(C(=O)c2ccc([N+](=O)[O-])cc2)CC1	22.6%		
COc1ccc(NC(=O)CCC(=O)Nc2ccc3nc(N4CCOCC4)cc(C)c3c2)c(OC)c1	7.94%	0.58 µM [rising, single point]	
O=[N+]([O-])c1ccc(N2CCN(C(=S)Nc3ccc(F)cc3F)CC2)cc1	-10%	25.1 µM [falling, single point]	
Nc1c(C(=O)Nc2ccccc2)sc2nc3c(c(-c4ccco4)c12)CCC3	20.5%		
COCCCn1c(C)cc(C(=O)COC(=O)C23CC4CC(CC(O)(C4)C2)C3)c1C		0.82 µM [rising, full curve, poor fit]	
CC(=O)Oc1c(S(=O)(=O)c2ccc(C)cc2)c(C)nn1C(C)(C)C	-2.59%		
O=S(=O)(/N=C(/Nc1ccccn1)c1ccc(Cl)cc1)c1ccc(Cl)cc1	19.1%	23.1 µM [falling, partial curve, poor fit]	
O=C(N/N=C/c1cc2c(cc1[N+](=O)[O-])OCO2)c1ccc2c(c1)OCO2	1.9%	5.17 µM [rising, partial curve]	
O=C(O)c1cnn2c1NC(c1ccc(F)cc1)CC2C(F)(F)F (stereo not given)	-82.7%		32.6 µM [falling, partial curve, poor fit]
O=C(c1cc(-c2ccc(Br)cc2)on1)N1CCCCCC1	6.25%	0.13 µM [falling, single point]	
Cc1cc(NC(=O)C(C)SCC(=O)Nc2nnc(CC(C)C)s2)no1 (stereo not given)	-35.7%		29.1 µM [falling, single point]
O=C(N/N=C1\NC(=O)C(CO)(CO)S1)c1ccccc1	5.58%	1.64 µM [falling, partial curve]	
CC(C)OCCCNC(=O)Cn1nc(-c2ccccc2)ccc1=O	14%	13 µM [rising, partial curve, poor fit]	
CN(CP(=O)(O)CCc1ccccc1)S(C)(=O)=O	-7.65%		
Cn1c(-c2ccccc2)cc2onc(-c3ccccc3)c2c1=O	-25.7%	0.326 µM [falling, single point]	
